The results in this text go back to paper PMC7564595.

Sequences of proteins named here, by UniProt entry; tags and fusion partners are left off.
UniProt Q9BSJ2: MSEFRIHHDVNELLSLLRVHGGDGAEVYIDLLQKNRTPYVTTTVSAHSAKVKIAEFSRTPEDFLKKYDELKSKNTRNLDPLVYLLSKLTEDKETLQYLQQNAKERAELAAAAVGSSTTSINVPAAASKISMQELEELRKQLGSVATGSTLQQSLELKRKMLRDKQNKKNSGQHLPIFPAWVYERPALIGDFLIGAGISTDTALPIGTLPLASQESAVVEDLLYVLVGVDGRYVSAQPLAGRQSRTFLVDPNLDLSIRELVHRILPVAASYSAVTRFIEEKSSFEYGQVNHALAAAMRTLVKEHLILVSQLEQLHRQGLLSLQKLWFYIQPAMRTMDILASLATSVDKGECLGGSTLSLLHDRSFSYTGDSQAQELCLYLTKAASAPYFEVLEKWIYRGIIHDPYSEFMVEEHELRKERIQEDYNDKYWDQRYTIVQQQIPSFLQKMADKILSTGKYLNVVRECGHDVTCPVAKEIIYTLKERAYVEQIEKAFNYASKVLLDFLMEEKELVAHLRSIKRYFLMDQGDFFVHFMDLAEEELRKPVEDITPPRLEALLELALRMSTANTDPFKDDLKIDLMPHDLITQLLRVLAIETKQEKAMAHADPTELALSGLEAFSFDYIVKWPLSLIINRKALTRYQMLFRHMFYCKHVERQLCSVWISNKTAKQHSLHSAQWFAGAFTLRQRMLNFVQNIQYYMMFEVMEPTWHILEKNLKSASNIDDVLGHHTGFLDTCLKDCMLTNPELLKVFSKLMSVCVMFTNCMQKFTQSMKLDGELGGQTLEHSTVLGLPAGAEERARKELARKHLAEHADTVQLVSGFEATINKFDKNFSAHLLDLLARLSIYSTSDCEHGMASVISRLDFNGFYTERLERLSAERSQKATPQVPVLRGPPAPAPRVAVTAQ
UniProt Q96CW5: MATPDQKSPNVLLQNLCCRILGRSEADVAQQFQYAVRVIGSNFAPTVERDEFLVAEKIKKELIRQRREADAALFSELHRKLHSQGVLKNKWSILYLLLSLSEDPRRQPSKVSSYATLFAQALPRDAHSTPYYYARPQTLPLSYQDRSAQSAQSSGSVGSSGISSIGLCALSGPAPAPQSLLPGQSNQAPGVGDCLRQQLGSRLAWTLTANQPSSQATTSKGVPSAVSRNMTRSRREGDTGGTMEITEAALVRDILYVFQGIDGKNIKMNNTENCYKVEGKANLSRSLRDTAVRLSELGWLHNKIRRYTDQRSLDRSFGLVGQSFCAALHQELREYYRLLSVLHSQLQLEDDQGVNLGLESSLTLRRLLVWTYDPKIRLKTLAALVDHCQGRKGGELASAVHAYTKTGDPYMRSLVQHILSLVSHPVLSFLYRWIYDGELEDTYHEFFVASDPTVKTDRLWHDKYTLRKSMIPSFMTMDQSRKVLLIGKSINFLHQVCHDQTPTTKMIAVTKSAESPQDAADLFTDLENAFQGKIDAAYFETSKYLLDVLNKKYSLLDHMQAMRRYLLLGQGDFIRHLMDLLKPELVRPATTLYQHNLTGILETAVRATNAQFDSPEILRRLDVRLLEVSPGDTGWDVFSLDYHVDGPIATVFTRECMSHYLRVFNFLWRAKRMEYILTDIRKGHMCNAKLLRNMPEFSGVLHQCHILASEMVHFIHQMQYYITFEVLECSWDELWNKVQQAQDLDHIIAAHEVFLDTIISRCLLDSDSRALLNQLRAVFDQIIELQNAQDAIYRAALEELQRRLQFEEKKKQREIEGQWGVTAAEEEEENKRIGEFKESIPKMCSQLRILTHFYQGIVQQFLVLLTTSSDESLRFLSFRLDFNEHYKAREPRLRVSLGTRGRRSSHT
UniProt Q9UBN7: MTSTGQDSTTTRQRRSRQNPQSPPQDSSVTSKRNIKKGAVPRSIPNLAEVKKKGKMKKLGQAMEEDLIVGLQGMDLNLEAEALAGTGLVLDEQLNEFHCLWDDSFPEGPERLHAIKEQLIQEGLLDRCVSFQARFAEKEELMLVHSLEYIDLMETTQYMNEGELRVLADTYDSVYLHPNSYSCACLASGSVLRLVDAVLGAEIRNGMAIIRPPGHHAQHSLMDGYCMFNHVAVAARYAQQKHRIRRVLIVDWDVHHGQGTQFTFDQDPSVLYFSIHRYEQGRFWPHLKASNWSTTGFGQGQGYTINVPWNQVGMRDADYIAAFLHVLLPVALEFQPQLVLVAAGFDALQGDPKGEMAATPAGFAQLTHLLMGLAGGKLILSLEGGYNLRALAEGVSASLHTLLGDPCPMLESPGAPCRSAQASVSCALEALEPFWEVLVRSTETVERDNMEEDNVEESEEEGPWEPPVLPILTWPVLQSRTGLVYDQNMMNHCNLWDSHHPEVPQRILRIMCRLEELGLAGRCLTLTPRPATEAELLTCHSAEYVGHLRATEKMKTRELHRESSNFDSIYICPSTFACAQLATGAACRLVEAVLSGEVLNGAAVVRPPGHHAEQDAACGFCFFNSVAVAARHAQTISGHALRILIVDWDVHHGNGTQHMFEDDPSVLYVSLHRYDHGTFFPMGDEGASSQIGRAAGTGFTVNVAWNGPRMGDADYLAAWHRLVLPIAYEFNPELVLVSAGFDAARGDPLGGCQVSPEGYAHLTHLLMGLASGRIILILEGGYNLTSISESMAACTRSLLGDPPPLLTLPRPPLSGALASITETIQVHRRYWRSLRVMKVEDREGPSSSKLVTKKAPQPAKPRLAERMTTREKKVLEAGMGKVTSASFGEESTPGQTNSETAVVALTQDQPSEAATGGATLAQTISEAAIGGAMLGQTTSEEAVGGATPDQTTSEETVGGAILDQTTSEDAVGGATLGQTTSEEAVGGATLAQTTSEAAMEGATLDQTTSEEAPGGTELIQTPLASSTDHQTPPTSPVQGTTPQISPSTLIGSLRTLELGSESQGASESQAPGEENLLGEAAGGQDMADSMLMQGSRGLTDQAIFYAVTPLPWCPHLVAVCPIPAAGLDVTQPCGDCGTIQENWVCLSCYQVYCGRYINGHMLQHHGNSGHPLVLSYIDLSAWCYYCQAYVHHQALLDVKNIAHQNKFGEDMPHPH

No constants are given. Whether binding was seen depends on the method and setting. Binding seen in cells or lysates may run through a third protein. Some binding calls cover weakened binding; strength is not graded here. Where a sequence is shown, tags or fusion partners need not be part of it.

The test addresses T1, SIRT4-eGFP (human) (UniProt Q9Y6E7).
T1 sequence: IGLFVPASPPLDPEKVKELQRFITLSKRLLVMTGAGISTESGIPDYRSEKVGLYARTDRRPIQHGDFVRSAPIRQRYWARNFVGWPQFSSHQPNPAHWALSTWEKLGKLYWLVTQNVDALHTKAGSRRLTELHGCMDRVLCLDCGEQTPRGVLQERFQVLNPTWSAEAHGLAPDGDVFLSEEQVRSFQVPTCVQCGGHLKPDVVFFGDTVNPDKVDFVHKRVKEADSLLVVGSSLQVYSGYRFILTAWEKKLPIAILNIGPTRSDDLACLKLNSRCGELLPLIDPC
Kind of test: co-IP; anti-eGFP nanobody co-immunoprecipitation from total cell lysates (0.3% CHAPS lysis buffer) of mitotically synchronized HEK293 cells expressing SIRT4-eGFP or eGFP; immunoblot. On the technique in general: A western blot detects proteins with antibodies after separation by electrophoresis.

For the substance TUBGCP2 (from UniProt Q9BSJ2 1-902), the binding result was “binds”. In the case of “Tubulin Gamma Complex Associated Protein 3 (from UniProt Q96CW5 1-907)” it was “binds”; in that of “histone deacetylase 6 (from UniProt Q9UBN7 1-1215) (enzyme)”, “binds”.
